Measurements reported in article PMC10584130.
No constants are given. Whether binding was seen depends on the method and setting. Binding seen in cells or lysates may run through a third protein. Some entries that bind do so weakly or less than the wild type.

By UniProt entry, the sequences of proteins in these tests, tags left out.
UniProt P32917: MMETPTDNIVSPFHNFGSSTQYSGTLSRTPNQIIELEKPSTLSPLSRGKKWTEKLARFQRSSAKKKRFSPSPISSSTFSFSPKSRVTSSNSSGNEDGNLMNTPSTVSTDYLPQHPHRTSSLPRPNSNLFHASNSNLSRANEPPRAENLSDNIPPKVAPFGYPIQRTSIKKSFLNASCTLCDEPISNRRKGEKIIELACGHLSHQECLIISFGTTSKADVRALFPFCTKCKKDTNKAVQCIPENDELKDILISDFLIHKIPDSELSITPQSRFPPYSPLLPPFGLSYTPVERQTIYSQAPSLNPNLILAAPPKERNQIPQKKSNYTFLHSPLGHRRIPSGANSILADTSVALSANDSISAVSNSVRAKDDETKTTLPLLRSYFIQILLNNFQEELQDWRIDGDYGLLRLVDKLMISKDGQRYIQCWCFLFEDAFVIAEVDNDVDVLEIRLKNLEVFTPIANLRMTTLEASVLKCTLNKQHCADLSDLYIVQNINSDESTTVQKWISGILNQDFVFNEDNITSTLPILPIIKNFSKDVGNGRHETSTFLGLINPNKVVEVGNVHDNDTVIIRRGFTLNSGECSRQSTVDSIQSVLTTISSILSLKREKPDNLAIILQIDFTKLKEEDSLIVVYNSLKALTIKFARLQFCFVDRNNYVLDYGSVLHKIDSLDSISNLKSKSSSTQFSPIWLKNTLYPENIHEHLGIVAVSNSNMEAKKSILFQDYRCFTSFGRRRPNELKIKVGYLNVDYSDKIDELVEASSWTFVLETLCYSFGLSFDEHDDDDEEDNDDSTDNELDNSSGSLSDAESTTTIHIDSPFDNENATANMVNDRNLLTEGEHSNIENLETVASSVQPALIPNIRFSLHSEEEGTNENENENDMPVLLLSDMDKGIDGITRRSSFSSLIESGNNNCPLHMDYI
UniProt P10591: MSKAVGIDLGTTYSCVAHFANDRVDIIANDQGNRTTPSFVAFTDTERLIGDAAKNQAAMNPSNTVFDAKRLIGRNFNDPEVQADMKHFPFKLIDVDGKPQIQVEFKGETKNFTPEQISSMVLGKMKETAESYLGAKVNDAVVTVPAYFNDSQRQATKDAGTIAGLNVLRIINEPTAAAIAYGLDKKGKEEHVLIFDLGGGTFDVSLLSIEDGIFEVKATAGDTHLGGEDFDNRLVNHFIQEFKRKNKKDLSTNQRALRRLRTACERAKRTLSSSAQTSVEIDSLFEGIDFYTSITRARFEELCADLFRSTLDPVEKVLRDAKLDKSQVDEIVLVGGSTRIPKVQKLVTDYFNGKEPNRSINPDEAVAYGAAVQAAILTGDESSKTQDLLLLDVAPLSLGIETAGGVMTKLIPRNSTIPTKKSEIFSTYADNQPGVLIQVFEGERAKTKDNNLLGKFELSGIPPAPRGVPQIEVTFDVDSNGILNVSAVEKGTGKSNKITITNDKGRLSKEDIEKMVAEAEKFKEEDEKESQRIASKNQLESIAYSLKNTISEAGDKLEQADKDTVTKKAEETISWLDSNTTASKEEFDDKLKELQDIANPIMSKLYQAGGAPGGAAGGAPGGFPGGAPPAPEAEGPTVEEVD

Molecular target: Ste5-Myc9 (S. cerevisiae) (UniProt P32917)
Assay: co-IP; whole cell extracts of EY1775 co-expressing the tagged proteins; IP with 9E10 (Myc) or anti-GFP polyclonal antibodies, immunoblot; modified H buffer with 200 mM NaCl, immunoprecipitation buffer 150 mM NaCl (results say 200 mM NaCl)

Substance: Ssa1-GFP (from UniProt P10591 1-642)
- binding: binds
